Laboratory results: PubChem BioAssay AID1508597 (Cure First, 2020)

Test: 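Knock-downs altering ovarian cancer cell survival with or without PARP inhibitor rucaparib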 (primary screen)
System: human ovarian carcinoma lines grown from tumours: OCI-P5x (papillary serous) and OCI-C5x (clear cell)
Reagents: siRNA pool against human genes, 1.25 pmol siRNA per well
Timing: 72 h or 96 h, depending on the cell culture
Conditions: rucaparib 20 µM (about IC30) or vehicle, present until read-out
Rucaparib or vehicle: Vehicle
Cell line: OCI-C5x (clear cell)
Measured: 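Luminescent ATP-based viability assay read 72 or 96 h after transfection, depending on culture, given as normalised percent viability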
Scale: viability, normalised: higher = more viable cells remaining
Active means: 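Active when normalised viability falls below 80 percent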
Meaning of the calls: active = viability under 80%; inactive = viability 80% or more
This is an unselected part of the about 2,100 reagents, under one of the conditions tested. 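Calls flag viability under 80% in either arm, not effects specific to rucaparib; the reference for percent is not stated.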 Some reagents were tested in more than one well and are listed for each. Reagent sequences are not shown. Not given: the 100% reference.

Target gene	technical replicate	viability, normalised (%)	Call
PSENEN	1	50.7	active
PSENEN	2	53.1	active
PSENEN	3	50.1	active
MAP3K13	1	70.1	active
MAP3K13	1	137	inactive
MAP3K13	2	66.2	active
MAP3K13	2	59.6	active
MAP3K13	3	57.4	active
MAP3K13	3	44.5	active
CHD3	1	36	active
CHD3	2	53.7	active
CHD3	3	61.8	active
DUSP1	1	51.8	active
DUSP1	2	52.7	active
DUSP1	3	34.4	active
DDB2	1	49.3	active
DDB2	1	96.6	inactive
DDB2	1	33.9	active
DDB2	2	31.2	active
DDB2	2	64.2	active
DDB2	2	63	active
DDB2	3	48.4	active
DDB2	3	39.5	active
DDB2	3	52	active
FAN1	1	51	active
FAN1	2	64.7	active
FAN1	3	49.3	active
H2AC4	1	63.9	active
H2AC4	2	48.7	active
H2AC4	3	60.1	active
NOTCH1	1	43.5	active
NOTCH1	2	39.5	active
NOTCH1	3	57.1	active
SLX1A	1	35.7	active
SLX1A	2	41.5	active
SLX1A	3	35.7	active
DGUOK	1	45.6	active
DGUOK	2	43.3	active
DGUOK	3	31.2	active
TDG	1	68	active
TDG	2	76.9	active
TDG	3	59.4	active
GNRHR	1	52.6	active
GNRHR	2	42.7	active
GNRHR	3	53.1	active
MED9	1	26.8	active
MED9	2	53.1	active
MED9	3	42.4	active
PARP2	1	60.8	active
PARP2	1	29.4	active
PARP2	2	39.2	active
PARP2	2	63.3	active
PARP2	3	61.4	active
PARP2	3	56.1	active
OGA	1	27.3	active
OGA	2	37.1	active
OGA	3	37.4	active

A portion from the list above:
Target gene	technical replicate	viability, normalised (%)	Call
PARP2	1	29.4	active
PARP2	2	39.2	active
PARP2	2	63.3	active
PARP2	3	61.4	active
PARP2	3	56.1	active
OGA	1	27.3	active
OGA	2	37.1	active
OGA	3	37.4	active
